Laboratory results: patent publication US4007267A, “Antibiotic B-98891” (priority 1974, dated 1977)
For at least one compound, name, drawing or mass did not settle the structure.

What was measured:
Assay in all cases: Antimicrobial spectrum (in vitro), agar dilution and diffusion methods
Type in all cases: cell-based
[1] = test system: Aspergillus niger IFO-4066; details: paper disc 7 mm, 5000 μg/ml; medium A, 28 °C, time 40
[2] = test system: Trichophyton mentagrophytes IFO-5809; details: paper disc 7 mm, 5000 μg/ml; medium D, 28 °C, time 88
Experimental: (§1) The antimicrobial spectrum of the antibiotic B-98891 as measured by the agar dilution and diffusion methods is shown in Table 3. The "diameter of inhibition zone" in the table represents the diameter of the inhibition zone formed around a paper disc(7 mm. in diameter) immersed in a 5000 μg/ml. solution of the present antibiotic.

[3] = test system: Candida albicans IFO-0583; details: paper disc 7 mm, 5000 μg/ml; medium A, 28 °C, time 40
[4] = test system: Pseudomonas aeruginosa IFO-3080; details: paper disc 7 mm, 5000 μg/ml; medium B, 37 °C, time 20
Experimental: as §1
B 0.5 % ehrlich's meat extract, 0.5 % polypeptone, 0.5 % NaCl, 1.5 % agar (pH 7)

With `NC(N)=NCC(O)CC(O)(C(=O)O)[C@H]1O[C@@H](n2cc(CO)c(N)nc2=O)C=C[C@@H]1NC(=O)[C@@H](N)CO` (stereo partly shown) [B-98891] the “Diameter of inhibition zone” value [1] was “+”, the “Diameter of inhibition zone” value [2] was “+” and the “Diameter of inhibition zone” value [3] was “-”. The “Diameter of inhibition zone” value [4] was “-”.
